Results from one PubChem assay

Data taken from PubChem BioAssay AID504749, deposited by NCATS (2011).

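A panel of P. falciparum strains inside erythrocytes is exposed to compounds for three days, then a DNA-binding dye reports the amount of parasite DNA.
Each compound was titrated across a series from about 0.000037 to 29 µM.
The number is the fitted AC50, the concentration giving a half-maximal change in signal; a lower value means higher potency, whether the curve shows a decrease or an increase.
Calls follow the curve class and fit quality: every row here is inconclusive, covering signal-raising curves and weak, poorly fitted, partial or highest-dose-only inhibition curves.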

Values are in nM.
Every entry below has the call inconclusive.
Only part of the assay is shown, chiefly results filed as inconclusive.
Potencies fitted to partial, single-point or poorly fitting curves are rough.
The first word of each remark tells which way the curve ran; it can be opposite to the aim of the assay.

Compound | tested on / at | Potency (nM) | curve as filed
CN(c1nccc(=O)[nH]1)C1CCN(c2nc3ccccc3n2Cc2ccc(F)cc2)CC1 | DIV17 | 6746 | inhibitor, partial curve
CN(c1nccc(=O)[nH]1)C1CCN(c2nc3ccccc3n2Cc2ccc(F)cc2)CC1 | CP194 | 9528 | inhibitor, single point
CN(c1nccc(=O)[nH]1)C1CCN(c2nc3ccccc3n2Cc2ccc(F)cc2)CC1 | CP266 | 2.7 | activator
CN(c1nccc(=O)[nH]1)C1CCN(c2nc3ccccc3n2Cc2ccc(F)cc2)CC1 | CP247 | 10000 | inhibitor, single point
CN(c1nccc(=O)[nH]1)C1CCN(c2nc3ccccc3n2Cc2ccc(F)cc2)CC1 | CP211 | 5358 | inhibitor, partial curve, poor fit
CN(c1nccc(=O)[nH]1)C1CCN(c2nc3ccccc3n2Cc2ccc(F)cc2)CC1 | Dd2 | 7943 | inhibitor, partial curve
CN(c1nccc(=O)[nH]1)C1CCN(c2nc3ccccc3n2Cc2ccc(F)cc2)CC1 | P94_40 | 10000 | inhibitor, single point
CN(c1nccc(=O)[nH]1)C1CCN(c2nc3ccccc3n2Cc2ccc(F)cc2)CC1 | CP217 | 11220 | inhibitor, single point
CN(c1nccc(=O)[nH]1)C1CCN(c2nc3ccccc3n2Cc2ccc(F)cc2)CC1 | ATS95 | 8912 | inhibitor, single point
CN(c1nccc(=O)[nH]1)C1CCN(c2nc3ccccc3n2Cc2ccc(F)cc2)CC1 | CP325 | 9528 | inhibitor, partial curve
CN(c1nccc(=O)[nH]1)C1CCN(c2nc3ccccc3n2Cc2ccc(F)cc2)CC1 | AA1029 | 11220 | inhibitor, single point
CN(c1nccc(=O)[nH]1)C1CCN(c2nc3ccccc3n2Cc2ccc(F)cc2)CC1 | CP203 | 5358 | inhibitor, partial curve
CN(c1nccc(=O)[nH]1)C1CCN(c2nc3ccccc3n2Cc2ccc(F)cc2)CC1 | PC15 | 17782 | inhibitor, single point
CN(c1nccc(=O)[nH]1)C1CCN(c2nc3ccccc3n2Cc2ccc(F)cc2)CC1 | CP215 | 11995 | inhibitor, single point
CN(c1nccc(=O)[nH]1)C1CCN(c2nc3ccccc3n2Cc2ccc(F)cc2)CC1 | DIV30 | 10690 | inhibitor, partial curve
CN(c1nccc(=O)[nH]1)C1CCN(c2nc3ccccc3n2Cc2ccc(F)cc2)CC1 | DIV14 | 7569 | inhibitor, partial curve
CN(c1nccc(=O)[nH]1)C1CCN(c2nc3ccccc3n2Cc2ccc(F)cc2)CC1 | GB4 | 10690 | inhibitor, partial curve, poor fit
CN(c1nccc(=O)[nH]1)C1CCN(c2nc3ccccc3n2Cc2ccc(F)cc2)CC1 | N140 | 17782 | inhibitor, single point
CN(c1nccc(=O)[nH]1)C1CCN(c2nc3ccccc3n2Cc2ccc(F)cc2)CC1 | ECU | 10000 | inhibitor, partial curve
CN(c1nccc(=O)[nH]1)C1CCN(c2nc3ccccc3n2Cc2ccc(F)cc2)CC1 | PC26 | 11995 | inhibitor, single point
CN(c1nccc(=O)[nH]1)C1CCN(c2nc3ccccc3n2Cc2ccc(F)cc2)CC1 | AS120 | 12589 | inhibitor, single point
CN(c1nccc(=O)[nH]1)C1CCN(c2nc3ccccc3n2Cc2ccc(F)cc2)CC1 | CP269 | 13459 | inhibitor, single point
CC1CCC(NC(=O)N(CCCl)N=O)CC1 (centres unmarked) | CP335 | 15101 | inhibitor, single point
CC1CCC(NC(=O)N(CCCl)N=O)CC1 (centres unmarked) | 7G8 | 10000 | inhibitor, partial curve
CC1CCC(NC(=O)N(CCCl)N=O)CC1 (centres unmarked) | GB4 | 16944 | inhibitor, single point
CC1CCC(NC(=O)N(CCCl)N=O)CC1 (centres unmarked) | DIV14 | 11995 | inhibitor, partial curve, poor fit
O=C(O)c1cn(-c2ccc(F)cc2)c2cc(N3CCNCC3)c(F)cc2c1=O | CP286 | 6310 | inhibitor, partial curve

For reference, 2 entries once more:

Compound,tested on / at,Potency (nM),curve as filed
CN(c1nccc(=O)[nH]1)C1CCN(c2nc3ccccc3n2Cc2ccc(F)cc2)CC1,CP266,2.7,activator
CN(c1nccc(=O)[nH]1)C1CCN(c2nc3ccccc3n2Cc2ccc(F)cc2)CC1,CP215,11995,"inhibitor, single point"